Data published in patent publication US6479280.
No constants are given. Whether binding was seen depends on the method and setting. Some results given as binding are weak or reduced against the parent protein; the word gives no strength.

Chains of the proteins cited; added tags and fusions are not shown. Residues count along the entry.
UniProt P01012, residues 2-386: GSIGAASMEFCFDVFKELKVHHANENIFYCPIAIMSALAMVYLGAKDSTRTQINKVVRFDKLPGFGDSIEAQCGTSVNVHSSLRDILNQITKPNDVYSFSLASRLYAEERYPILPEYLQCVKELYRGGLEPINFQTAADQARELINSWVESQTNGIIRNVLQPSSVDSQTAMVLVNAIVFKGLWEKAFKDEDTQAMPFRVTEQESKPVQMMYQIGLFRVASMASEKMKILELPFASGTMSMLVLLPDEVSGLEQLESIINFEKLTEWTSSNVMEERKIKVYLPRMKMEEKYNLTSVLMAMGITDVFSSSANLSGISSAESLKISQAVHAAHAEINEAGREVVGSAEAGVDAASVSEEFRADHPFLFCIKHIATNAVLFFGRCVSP

Target: hen-egg ovalbumin (hen) (UniProt P01012)
Test: biopanning on coated ovalbumin, then ELISA of periplasmic extracts for ovalbumin binders

B1: 1DBOVA1 (VHH, not shown: small tags and cut ends)
VHH: DVQLVESGGGSVPAGSLRLSCAVSGYTYENRYMAWFRQAPGKEREGVAAIWRGGNNPYYADSVKGRFTISQDNAKNIVSLLMNSLKPEDTAIYYCAAQAGRFSGPLYESTYDYWGQGTQVTVSS
  binding: binds
